Measurements from PubChem BioAssay (NCATS).
Inconclusive results, whose numbers are uncertain, are shown with a selection of clear calls. For part of these data: Potencies of inconclusive entries are doubtful fits and often do not repeat. Calls of active or inactive are those of the source. The call rests on the fitted dose curve; in most records, active means well fitted curve in the direction sought with a large enough effect; inconclusive means small, poorly fitted or top-dose-only effect, or another doubt; inactive means no such curve, though single readings can be large; an effect the other way counts as inactive or inconclusive.

How the values were obtained:
[1] = Quantitative highthroughput screen to assess conditional lethalithy of NOMO1 cells grown in RPMI1640 with untreated serum (RPMI+s) (AID 1963876); conditions: NOMO1 AML cells in RPMI+serum, CellTiter-Glo viability, 48 h; viability: at 45.8 µM (top of the series); further: nearly all actives have a fitted effect of over 35% in size
In short: (§1)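 Each medium arm—HPLM with 10% dialyzed FBS, or RPMI1640 with 5 mM glucose and 10% untreated or dialyzed FBS—was screened against an 11-point, 3-fold compound titration for 48 h at 37 °C, with CellTiter-Glo luminescence as endpoint.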

[2] = Quantitative highthroughput screen to assess conditional lethalithy of NOMO1 cells grown in Human Plasma-Like Medium with dialyzed fetal bovine serum (HPLM+ds) (AID 1963878); conditions: NOMO1 AML cells in HPLM+ds, CellTiter-Glo viability, 48 h; viability: at 45.8 µM (top of the series); further: nearly all actives have a fitted effect of over 35% in size
In short: as §1

[3] = Quantitative highthroughput screen to assess conditional lethalithy of P12 Ichikawa cells grown in Human Plasma-Like Medium with dialyzed fetal bovine serum (HPLM+ds) (AID 1963879); conditions: Potency: viability; further: nearly all actives have a fitted effect of over 35% in size
In short: as §1

[4] = Quantitative highthroughput screen to assess conditional lethalithy of P12 Ichikawa cells grown in RPMI1640 with dialyzed fetal bovine serum (RPMI+ds) (AID 1963880); conditions: Potency: P12-Ichikawa viability; further: nearly all actives have a fitted effect of over 35% in size
In short: as §1

[5] = Quantitative highthroughput screen to assess conditional lethalithy of SEM cells grown in RPMI1640 with unreated serum (RPMI+s) (AID 1963883); conditions: SEM B-ALL cells, CellTiter-Glo viability, 48 h; viability: at 45.8 µM (top of the series); further: nearly all actives have a fitted effect of over 35% in size
In short: as §1

[6] = Cellular viability qHTS for adrenocortical cancer (ACC) cell line NCI-H295R (AID 1963990); conditions: CellTiter-Glo ATP luminescence, 48 h; series mostly up to 46.1 µM; further: nearly all actives have a fitted effect of over 60% in size
In short: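 Viability of NCI-H295R after 48 h of treatment (final up to 46 uM) measured through cellular ATP luminescence.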

[7] = Quantitative highthroughput screen to assess conditional lethalithy of P12 Ichikawa cells grown in RPMI1640 with untreated serum (RPMI+s) (AID 1963881); conditions: Potency: viability; further: nearly all actives have a fitted effect of over 35% in size
In short: as §1

[8] = Quantitative highthroughput screen to assess conditional lethalithy of SEM cells grown in RPMI1640 with dialyzed fetal bovine serum (RPMI+ds) (AID 1963884); conditions: SEM B-ALL cells, RPMI+dialyzed FBS, CellTiter-Glo viability, 48 h; viability: at 45.8 µM (top of the series); further: nearly all actives have a fitted effect of over 35% in size
In short: as §1

[9] = Quantitative highthroughput screen to assess conditional lethalithy of SEM cells grown in Human Plasma-Like Medium with dialyzed fetal bovine serum (HPLM+ds) (AID 1963882); further: nearly all actives have a fitted effect of over 35% in size
In short: as §1

[10] = Quantitative highthroughput screen to assess conditional lethalithy of NOMO1 cells grown in RPMI1640 with dialyzed fetal bovine serum (RPMI+ds) (AID 1963877); further: nearly all actives have a fitted effect of over 30% in size
In short: as §1

[11] = Cellular viability qHTS for adrenocortical cancer (ACC) cell line SW-13 (AID 1963989); conditions: SW-13 ACC cells viability, CellTiter-Glo, 48 h; activity (max response): stronger effect = lower value; further: nearly all actives have a fitted effect of over 65% in size
In short: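 Here, serum-free SW-13 cultures were dosed up to 46 uM. Following 48 h, ATP-dependent luminescence (CellTiter-Glo) reported viable cells, and logistic modeling produced IC50 values.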

Measured: Potency
Potency means the concentration at half of the fitted maximal effect.

CCN(CCO)CCCOc1ccc2c(Nc3cc(CC(=O)Nc4cccc(F)c4)[nH]n3)ncnc2c1
inconclusive: [1] 0.105 µM [cytotoxic, full curve] | [2] 1.18 µM [cytotoxic, partial curve] | [6] 17.8 µM [cytotoxic, single point]
active: [3] 0.166 µM | [4] 0.187 µM | [5] 0.264 µM

N#CC(=C(O)c1ccc(Cl)cc1Cl)c1nc2cc(Cl)ccc2c(=O)[nH]1
inactive: [1] | [2]

O=c1[nH]c(=O)n([C@H]2C[C@@H](O)[C@@H](CO)O2)cc1I
active: [2] 11.8 µM
inconclusive: [1] 20.9 µM [cytotoxic, partial curve, poor fit] | [3] 7.43 µM [cytotoxic, full curve] | [7] 10.5 µM [cytotoxic, partial curve, poor fit] | [5] 10.5 µM [cytotoxic, partial curve] | [8] 1.66 µM [cytotoxic, full curve]

CCC(C(=O)O)C1CCC(C)C(C(C)C(O)C(C)C(=O)C(CC)C2OC3(C=CC(O)[C@@]4(CC[C@](C)(C5CC[C@@](O)(CC)C(C)O5)O4)O3)C(C)CC2C)O1 (some centres undefined)
inconclusive: [1] 2.09 µM [cytotoxic, full curve, poor fit] | [2] 1.66 µM [cytotoxic, full curve] | [4] 1.32 µM [cytotoxic, full curve] | [7] 1.66 µM [cytotoxic, full curve] | [9] 2.09 µM [cytotoxic, full curve, poor fit] | [8] 1.48 µM [cytotoxic, full curve, poor fit]
active: [6] 0.708 µM

CC(=O)ON=C1C(c2c(O)[nH]c3cc(Br)ccc23)=Nc2ccccc21
inconclusive: [1] 20.9 µM [cytotoxic, partial curve, poor fit] | [2] 16.6 µM [cytotoxic, partial curve] | [4] 18.7 µM [cytotoxic, partial curve] | [7] 18.7 µM [cytotoxic, partial curve] | [5] 1.05 µM [cytotoxic, full curve]

CC=CC(=O)N(CC)c1ccccc1C
inconclusive: [5] 26.4 µM [cytotoxic, single point]
inactive: [1] | [10] | [9]

Clc1cc(Cl)cc(CNc2ncncc2-c2ccc3c(c2)OCO3)c1
inconclusive: [1] 29.6 µM [cytotoxic, single point] | [2] 26.4 µM [cytotoxic, single point] | [3] 33.2 µM [cytotoxic, single point] | [4] 33.2 µM [cytotoxic, single point] | [7] 23.5 µM [cytotoxic, partial curve] | [9] 23.5 µM [cytotoxic, partial curve] | [8] 23.5 µM [cytotoxic, partial curve]
active: [5] 26.4 µM | [11] 10 µM

Cc1ccc(NC(=O)Nc2cc(C(F)(F)F)ccc2F)cc1Nc1ccc2c(c1)NC(=O)C2=Cc1ccc[nH]1
inconclusive: [1] 29.6 µM [cytotoxic, single point] | [2] 29.6 µM [cytotoxic, single point] | [3] 37.2 µM [cytotoxic, single point] | [4] 23.5 µM [cytotoxic, partial curve] | [7] 26.4 µM [cytotoxic, single point]

CC(=CC(=O)Nc1ccccc1C(=O)O)c1ccc2ccccc2c1
inconclusive: [10] 0.148 µM [cytotoxic, full curve, poor fit] | [9] 20.9 µM [cytotoxic, single point]
inactive: [1]

Fc1ccc(C(c2ccc(F)cc2)N2CCN(CC=Cc3ccccc3)CC2)cc1
inactive: [1] | [2]

As a short view, 2 of the compounds above:
CC(=CC(=O)Nc1ccccc1C(=O)O)c1ccc2ccccc2c1
inconclusive: [10] 0.148 µM [cytotoxic, full curve, poor fit] | [9] 20.9 µM [cytotoxic, single point]
inactive: [1]

Fc1ccc(C(c2ccc(F)cc2)N2CCN(CC=Cc3ccccc3)CC2)cc1
inactive: [1] | [2]

Additional results

COc1cc2nccc(Oc3ccc(NC(=O)NC4CC4)c(Cl)c3)c2cc1C(N)=O
active: [1] 26.4 µM | [2] 18.7 µM
inconclusive: [9] 1.87 µM [cytotoxic, full curve] | [5] 7.43 µM [cytotoxic, partial curve] | [8] 0.743 µM [cytotoxic, full curve]
